# From patent publication US5385884A, “Lipopeptide derivatives” (Merck & Co. Inc., priority 1991, dated 1995)
# Counter-ions that a name gives are not always drawn. At least one peptide structure holds a part that was inferred or is arguable (an end, a ring closure or a residue).
# Columns and labels:
# Pneumocystis carinii = Pneumocystis carinii pneumonia in immunosuppressed rats; format: in vivo, Sprague-Dawley rats; details: intravenously (I.V.) twice daily for four days, vehicle distilled water
# Procedure: In a representative study, the effectiveness of Compound A-la was determined. Sprague-Dawley rats (weighing approximately 250 grams) were immunosuppressed with dexasone in the drinking water (2.0 mg/L) and maintained on a low protein diet for five weeks to induce the development of pneumocystis pneumonia from a latent infection. […] Six rats (weighing approximately 150 grams) were injected twice daily for four days intravenously (I.V.) via the tail vein with Compound A-la in 0.25 ml of vehicle (distilled water). A vehicle control was also carried out. All animals continued to receive dexasone in the drinking water and low protein diet during the treatment period. At the completion of the treatment, all animals were sacrificed, the lungs were removed and processed, and the extent of disease determined by microscopic analysis of stained slides.
# In a similar experiment, except that the rats were injected intraperitoneally (I.P.) twice daily for four days, the animals were sacrificed, the lungs removed and processed, and the extent of disease determined by microscopic analysis of stained slides.
# C. parapsilosis = assay: Minimum fungicidal concentration, microbroth dilution assay in YNBD; format: cell-based; details: C. parapsilosis MY 1010
structure (smiles),measurement,setting,value
"CCC(C)CC(C)CCCCCCCCC(=O)NC1CC(O)C(O)NC(=O)C2C(O)CCN2C(=O)C(C(O)CC(N)=O)NC(=O)C(C(O)C(O)c2ccc(OP(=O)(O)O)cc2)NC(=O)C2CC(O)CN2C(=O)C(C(C)O)NC1=O (centres unmarked) [Compound A-1a, 1-[4,5-dihydroxy-N2-(10,12-dimethyl-1-oxotetradecyl)-ornithine-4-[3,4-dihydroxy-4'-O-phosphoryl-homotyrosine]-5-[3-hydroxyglutamine]-6-[3-hydroxyproline]-echinocandin B disodium salt]",ED90 for eliminating P. carinii cysts,Pneumocystis carinii,approximately 0.6 mg/kg
same,Minimum Fungicidal Concentration,C. parapsilosis,32 µg/mL
